Source: patent EP0357495A2, “3'Azido-3'-deoxythymidine (AZT) derivatives active against the AIDS virus” (IRE-CELLTARG S.A., priority 1988, dated 1990)
At least one compound was matched to its structure with a doubt left.

System: virus HIV-1 (souche HTLV-IIIB)
Test: viral antigen expression in HIV-infected HUT-78 cells (indirect immunofluorescence, laser cytofluorescence)
Assay type: cell-based
Conditions: HUT-78, day 12, concentration 0.0004 µM
Text: Les produits (AZT et AZT-5′ hémisuccinyl) à différentes concentrations ont été mis en présence de cellules HUT-78 infectées par le virus HIV-1 (souche HTLV-IIIB) à une multiplicité d'infection de 0.4. Tous les quatre jours, 3/4 du milieu ont été remplacés par du milieu frais. Après douze jours, l'expression des antigènes viraux a été mesurée par immunofluorescence indirecte à l'aide d'un sérum anti-HIV-I positif, et par cytofluorescence laser, tel que décrit par Pauwels et al. J. Virol. Meth. 16, 171-185 (1987).
Des résultats sont exprimés dans le tableau 3 en ED₅₀ et en pourcentage d'effet protecteur selon la formule : [formula] TABLEAU 3

## Cc1cn([C@H]2C[C@H](N=[N+]=[N-])[C@@H](COC(=O)CCC(=O)O)O2)c(=O)[nH]c1=O [AZT 5′hémisuccinyl, 5′-hémisuccinyl-3′-azido-3′-déoxythymidine]
  Pourcentage d'effet protecteur: - 74%
